For this assay, the system named is P388 leukemia ip, CD2F1 mice, survival T/C. The assay can be described thus: NCI In Vivo Anticancer Drug Screen. Data for tumor model P388 Leukemia (intraperitoneal) in CD2F1 (CDF1) mice. As to conditions: T/C endpoint: median survival time, higher T/C = longer survival.
Where [1] appears, read: dose: 200.0 mg/kg/injection, schedule: Q01DX009 (ip), vehicle: saline.
Where [2] appears, read: dose: 240.0 mg/kg/injection, schedule: Q01DX005 (ip), vehicle: saline with Tween-80.
Setting [3] is: dose: 200.0 mg/kg/injection, schedule: Q01DX005 (ip), vehicle: Klucel (hydroxypropylcellulose) (HPC).
Where [4] appears, read: dose: 120.0 mg/kg/injection, schedule: Q01DX005 (ip), vehicle: saline with Tween-80.

The values that follow come from PubChem BioAssay AID330 (DTP/NCI, 2004).

Molecules are shown by their SMILES. The list does not hold the whole screen: it gathers tests that were run many times, whatever their T/C, doses with no T/C, and many T/C values between a quarter and a half above the control. Further doses and runs are listed elsewhere. T/C: endpoint of the treated group in % of that of the vehicle group. Some entries give survivors of the animals treated and no T/C: the source holds a T/C of zero for them, seemingly a mark for toxic or unscored doses. Some doses without a T/C left all or most animals alive at the check, yet need not have been tolerated: survival well below the control is almost never listed, so the zero probably covers shortened survival too. Survivors were counted at the toxicity check, usually on the fifth day, unless a day is given; later deaths do not show. Schedules are NCI's codes, read here as Q, the interval in days (D) or hours (H), X, the number of doses. For survival time, this PubChem deposit counts one and a half times the control or more as active, and values a quarter to a half above the control carry no call in these data; other NCI protocols may use other cut-offs.

In the case of `C=C(C)[C@@]12OC3(/C=C/C=C/CCCCC)O[C@@H]1[C@@H]1[C@@H]4O[C@]4(CO)[C@@H](O)[C@]4(O)C(=O)C(C)=C[C@H]4[C@@]1(O3)[C@H](C)[C@H]2OC(=O)c1ccccc1`, the T/C (dose: 0.2 mg/kg/injection, schedule: Q01DX009 (ip), vehicle: saline + alcohol) was 127 % of control; the T/C (dose: 0.4 mg/kg/injection, schedule: Q01DX009 (ip), vehicle: saline + alcohol) is 132 % of control; the T/C (dose: 0.8 mg/kg/injection, schedule: Q01DX009 (ip), vehicle: saline + alcohol) is 137 % of control; the T/C (dose: 6.2 micrograms/kg/injection, schedule: Q01DX009 (ip), vehicle: saline + alcohol) was 132 % of control; the T/C (dose: 12.5 micrograms/kg/injection, schedule: Q01DX009 (ip), vehicle: saline + alcohol) is 129 % of control; the T/C (dose: 25.0 micrograms/kg/injection, schedule: Q01DX009 (ip), vehicle: saline + alcohol) is 145 % of control. For the same molecule, the survivor count reads like this: (dose: 50.0 micrograms/kg/injection, schedule: Q01DX009 (ip), vehicle: saline + alcohol) 6 of 6; (dose: 100.0 micrograms/kg/injection, schedule: Q01DX009 (ip), vehicle: saline + alcohol) 5 of 6; (dose: 200.0 micrograms/kg/injection, schedule: Q01DX009 (ip), vehicle: saline + alcohol) 0 of 6.

Take `CCCCCCCCCCCC[N+]1(CC)CCOCC1`: the survivor count by setting is: (dose: 50.0 mg/kg/injection, schedule: Q01DX009 (ip), vehicle: saline) 1 of 6; (dose: 100.0 mg/kg/injection, schedule: Q01DX009 (ip), vehicle: saline) 1 of 6; under setting [1], 0 of 6.

`CC(=O)c1c(CO[N+](=O)[O-])n([O-])c2ccccc2[n+]1=O`: under setting [2], the survivor count is recorded as 4 of 6.

In the case of `Cc1ccc(S(=O)(=O)C(CC(=O)CCN(C)C)c2ccccc2)cc1` (stereo not given), under setting [1], the survivor count is 1 of 6.

As to `CC(=O)[O][Sn]([c]1ccccc1)([c]1ccccc1)[c]1ccccc1`, the survivor count is recorded as 3 of 6 (dose: 1.0 mg/kg/injection, schedule: Q04DX003 (ip), vehicle: saline with Tween-80); 1 of 6 (dose: 2.5 mg/kg/injection, schedule: Q04DX003 (ip), vehicle: saline with Tween-80); 0 of 6 (dose: 5.0 mg/kg/injection, schedule: Q04DX003 (ip), vehicle: saline with Tween-80); 0 of 6 (dose: 10.0 mg/kg/injection, schedule: Q04DX003 (ip), vehicle: saline with Tween-80).

`C1CC[C@H]2OCN[C@@H]2C1`: the T/C (dose: 100.0 mg/kg/injection, schedule: Q04DX002 (ip), vehicle: Klucel (hydroxypropylcellulose) (HPC)) was 127 % of control.

Regarding `C/C(=N\NC(=S)N1CCCCCC1)c1ccccn1`, the survivor count by setting is: (dose: 50.0 mg/kg/injection, schedule: Q01DX009 (ip), vehicle: saline with Tween-80) 3 of 6; (dose: 100.0 mg/kg/injection, schedule: Q01DX009 (ip), vehicle: saline with Tween-80) 3 of 6; (dose: 200.0 mg/kg/injection, schedule: Q01DX009 (ip), vehicle: saline with Tween-80) 0 of 6.

As to `C/C(=N\O)c1cc(/C(C)=N/O)cc(/C(C)=N/O)c1`, the survivor count under setting [1] is reported as 4 of 6.

As to `c1cc(CSC2=NCCN2)c2cccc(CSC3=NCCN3)c2c1`, the survivor count is given as 2 of 6 (dose: 100.0 mg/kg/injection, schedule: Q01DX005 (ip), vehicle: Klucel (hydroxypropylcellulose) (HPC)) and 0 of 6 under setting [3].

Take `CS(=O)(=O)c1cc([N+](=O)[O-])cc([N+](=O)[O-])c1Cl`: the survivor count (dose: 10.0 mg/kg/injection, schedule: Q01DX009 (ip), vehicle: saline with Tween-80) is reported as 6 of 6.

Turning to `O=C1CC[C@@H](NC(=O)Cc2ccccc2)C(=O)N1`, the survivor count is 6 of 6 under setting [4]; 6 of 6 under setting [2]; 6 of 6 (dose: 250.0 mg/kg/injection, schedule: Q01DX005 (ip), vehicle: saline with Tween-80); 6 of 6 (dose: 500.0 mg/kg/injection, schedule: Q01DX005 (ip), vehicle: saline with Tween-80); 6 of 6 (dose: 1000.0 mg/kg/injection, schedule: Q01DX005 (ip), vehicle: saline with Tween-80); 2 of 6 (dose: 2000.0 mg/kg/injection, schedule: Q01DX005 (ip), vehicle: saline with Tween-80).

In the case of `CC(=O)OC1C=CC(O)N(C(C)=O)C1SC(C)(C)C` (stereo not given), the survivor count runs as follows: (dose: 100.0 mg/kg/injection, schedule: Q01DX009 (ip), vehicle: distilled water + Tween-80 + alcohol) 0 of 6; (dose: 200.0 mg/kg/injection, schedule: Q01DX009 (ip), vehicle: distilled water + Tween-80 + alcohol) 1 of 6; (dose: 400.0 mg/kg/injection, schedule: Q01DX009 (ip), vehicle: distilled water + Tween-80 + alcohol) 0 of 6.

For `CCN(CC)CCCNc1cc(OC)cc2nc3ccccc3nc12`, for the setting “dose: 200.0 mg/kg/injection, schedule: Q01DX005 (ip), vehicle: saline”, the survivor count is 0 of 5.

Consider `C=C1C(=O)C(CCC)=C(CC)C1O` (stereo not given), for which the survivor count runs as follows: under setting [4], 0 of 6; under setting [2], 0 of 6.

For `S=C1NCCNC(=S)SS1`, the survivor count is reported as 3 of 5 (dose: 50.0 mg/kg/injection, schedule: Q01DX005 (ip), vehicle: Klucel (hydroxypropylcellulose) (HPC)) and 1 of 5 under setting [3].

In the case of `Cc1c[nH]c2nc(C)n(-c3ccccc3F)c(=N)c12`, the survivor count under setting [3] was 1 of 6.

Consider `CCO/C=C1/N=C(Cc2ccc(Br)cc2)OC1=O`, for which the survivor count under setting [2] is given as 6 of 6.

On to `CC(C)CC(=O)CC(O)(C(F)(F)F)C(F)(F)F`, for which the survivor count (dose: 400.0 mg/kg/injection, schedule: Q01DX009 (ip), vehicle: saline with Tween-80) is reported as 2 of 6.

On to `COC(=O)[C@H]1[C@H]2C[C@@H]3c4[nH]c5ccccc5c4CCN3C[C@H]2C[C@@H](OC(=O)c2cc(OC)c(OC)c(OC)c2)[C@@H]1OC`, for which the survivor count is given as 6 of 6 (dose: 50.0 mg/kg/injection, schedule: Q01DX005 (ip), vehicle: saline with Tween-80); 6 of 6 (dose: 100.0 mg/kg/injection, schedule: Q01DX005 (ip), vehicle: saline with Tween-80); 4 of 6 (dose: 200.0 mg/kg/injection, schedule: Q01DX005 (ip), vehicle: saline with Tween-80).

For `Clc1cccc(N=Cc2ccc(C=Nc3cccc(Cl)c3)cc2)c1`, the survivor count (dose: 200.0 mg/kg/injection, schedule: Q01DX009 (ip), vehicle: Klucel (hydroxypropylcellulose) (HPC)) was 6 of 6.

As to `COc1cc(C=Nc2cccc(Br)c2)ccc1N(CCCl)CCCl`, the T/C is 128 % of control (dose: 2.2 mg/kg/injection, schedule: Q01DX009 (ip), vehicle: saline with Tween-80); 138 % of control (dose: 6.25 mg/kg/injection, schedule: Q01DX009 (ip), vehicle: saline with Tween-80); 147 % of control (dose: 7.5 mg/kg/injection, schedule: Q01DX009 (ip), vehicle: saline with Tween-80).
